Taken from: PubChem BioAssay AID1053208 (Peter MacCallum Cancer Centre, 2014)
Here is a random part of about 17,000 deposited reagents. In the full data, 788 (4.7%) got an active call. 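Calls rest on z-score classes alone; an extra cut-off of viability at most 70% of control was not applied to them.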 Reagents against one gene are numbered here.

- Test: 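Synthetic lethal interactions between gene loss and doxorubicin in osteosarcoma cells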 (primary screen)
- Cell system: mouse osteosarcoma cells, early-passage culture from an engineered mouse model of fibroblastic bone tumour
- Reagent: siRNA pool against mouse genes, 40 nM
- Timing: about 120 h (48 h before drug, then 72 h with drug)
- Treatment: doxorubicin 100 nM for 72 h, roughly 30-40% inhibitory dose
- Detection: 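Luminescent ATP signal taken as viability with or without 100 nM doxorubicin for 72 h; mean of two wells set against non-targeting siRNA and turned into robust z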
- Scale: viability z-score with doxorubicin and doxorubicin viability vs non-targeting: higher = more viable cells under doxorubicin; viability z-score without drug: higher = more viable cells with knock-down alone; z-score of drug to no-drug ratio: higher = less drug sensitisation by knock-down
- Rule for the call: 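a pool counts as active when its viability z-score with doxorubicin is -2 or below and its z-score without drug lies between -2 and 2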

| gene knocked down | reagent no. | combined z-score class | viability z-score with doxorubicin | viability z-score without drug | z-score of drug to no-drug ratio | doxorubicin viability vs non-targeting | Call |
| --- | --- | --- | --- | --- | --- | --- | --- |
| Nckap1 | 1 | low cell count without drug only | 0.45 | -2.02 | 2.25 | 0.98 | inactive |
| Aknad1 | 1 | no change with or without drug | 0.11 | 1.85 | -0.9 | 0.95 | inactive |
| Ezr | 1 | no change with or without drug | 1.35 | 0 | 1.57 | 1.06 | inactive |
| Cldn17 | 1 | no change with or without drug | -1.46 | -1.18 | -0.67 | 0.81 | inactive |
| Tubb4b | 1 | no change with or without drug | 0 | -0.17 | 0.22 | 0.94 | inactive |
| Cldn23 | 1 | low cell count with doxorubicin only | -2.14 | -1.52 | -1.24 | 0.75 | active |
| Cps1 | 1 | no change with or without drug | -0.34 | -0.17 | -0.11 | 0.91 | inactive |
| Gdi2 | 1 | high cell count with doxorubicin only | 2.02 | -0.84 | 2.92 | 1.12 | inactive |
| Gdi2 | 2 | no change with or without drug | 0.34 | 0.67 | 0 | 0.97 | inactive |
| Gjc1 | 1 | high cell count with doxorubicin only | 2.02 | 1.52 | 1.12 | 1.12 | inactive |
| Ropn1l | 1 | no change with or without drug | 0 | -1.18 | 1.01 | 0.94 | inactive |
| Tbcd | 1 | no change with or without drug | -1.12 | 0.51 | -1.35 | 0.84 | inactive |
| Fgf1 | 1 | no change with or without drug | 0.56 | -0.51 | 1.12 | 0.99 | inactive |
| Odf1 | 1 | no change with or without drug | 0.79 | 0.51 | 0.56 | 1.01 | inactive |
| Dhh | 1 | no change with or without drug | 0.45 | 0.17 | 0.45 | 0.98 | inactive |
| Ppp1r7 | 1 | no change with or without drug | -0.56 | 0.17 | -0.56 | 0.89 | inactive |
| Ift43 | 1 | no change with or without drug | 1.24 | -0.84 | 2.14 | 1.05 | inactive |
| Oas1h | 1 | no change with or without drug | -0.11 | -0.51 | 0.34 | 0.93 | inactive |
| Mgarp | 1 | no change with or without drug | 0.34 | -1.18 | 1.35 | 0.97 | inactive |
| Cdh13 | 1 | no change with or without drug | -0.22 | -0.84 | 0.45 | 0.92 | inactive |
| Zc3h8 | 1 | low cell count with doxorubicin only | -2.25 | 0.34 | -2.47 | 0.74 | active |
| Slc38a5 | 1 | low cell count with doxorubicin only | -2.02 | 0.51 | -2.25 | 0.76 | active |
| 4921522P10Rik | 1 | low cell count with doxorubicin only | -7.76 | 0.67 | -8.21 | 0.25 | active |
| Kitl | 1 | no change with or without drug | -0.22 | -0.84 | 0.45 | 0.92 | inactive |
| Sobp | 1 | no change with or without drug | -0.79 | 0.17 | -0.79 | 0.87 | inactive |
| Smarcd2 | 1 | no change with or without drug | -0.11 | -0.17 | 0.11 | 0.93 | inactive |
| Mrpl30 | 1 | no change with or without drug | -0.11 | -0.34 | 0.22 | 0.93 | inactive |
| Mkrn2 | 1 | low cell count with doxorubicin only | -2.25 | -0.34 | -2.02 | 0.74 | active |
| Gadd45b | 1 | no change with or without drug | 1.12 | -0.17 | 1.46 | 1.04 | inactive |
| Med21 | 1 | no change with or without drug | 0.11 | 0.51 | -0.11 | 0.95 | inactive |
| Tlx3 | 1 | no change with or without drug | 1.46 | 0.17 | 1.46 | 1.07 | inactive |
| 1810065E05Rik | 1 | no change with or without drug | -1.24 | 0.17 | -1.35 | 0.83 | inactive |
| Nfe2l1 | 1 | no change with or without drug | 1.35 | 1.35 | 0.56 | 1.06 | inactive |
| Exosc2 | 1 | no change with or without drug | 1.01 | 1.18 | 0.34 | 1.03 | inactive |
| Vmn1r217 | 1 | high cell count with doxorubicin only | 2.25 | 1.69 | 1.24 | 1.14 | inactive |
| Gfod2 | 1 | no change with or without drug | -0.11 | 0.17 | -0.11 | 0.93 | inactive |
| Erp44 | 1 | no change with or without drug | -1.8 | -0.34 | -1.57 | 0.78 | inactive |
| Or4k15 | 1 | no change with or without drug | -0.67 | -0.84 | 0 | 0.88 | inactive |
| Clec2e | 1 | low cell count with doxorubicin only | -2.25 | -0.67 | -1.91 | 0.74 | active |
| Slc39a8 | 1 | no change with or without drug | 0 | 0.34 | -0.11 | 0.94 | inactive |
| Tent4a | 1 | no change with or without drug | 1.57 | 0.51 | 1.35 | 1.08 | inactive |
| Or14c39 | 1 | no change with or without drug | 0.9 | -0.17 | 1.24 | 1.02 | inactive |
| Rp9 | 1 | no change with or without drug | 0.22 | 1.01 | -0.34 | 0.96 | inactive |
| Pax9 | 1 | no change with or without drug | 0.9 | 0.17 | 0.9 | 1.02 | inactive |
| Itga5 | 1 | no change with or without drug | -1.46 | -1.69 | -0.34 | 0.81 | inactive |
| Yaf2 | 1 | high cell count without drug only | -0.45 | 2.53 | -1.8 | 0.9 | inactive |
| Det1 | 1 | no change with or without drug | 0.9 | 1.01 | 0.34 | 1.02 | inactive |
| Ca14 | 1 | no change with or without drug | -1.35 | 0.51 | -1.57 | 0.82 | inactive |
| 4921504E06Rik | 1 | high cell count with doxorubicin only | 2.02 | 1.85 | 0.9 | 1.12 | inactive |
| Rab36 | 1 | no change with or without drug | -1.46 | 1.18 | -2.14 | 0.81 | inactive |
| Elf1 | 1 | no change with or without drug | 1.12 | 1.69 | 0.11 | 1.04 | inactive |
| 2010013B10RIK | 1 | no change with or without drug | 1.35 | 0.51 | 1.12 | 1.06 | inactive |
| Rlf | 1 | no change with or without drug | 0.34 | 0 | 0.45 | 0.97 | inactive |
| Epn1 | 1 | no change with or without drug | -1.35 | -1.18 | -0.56 | 0.82 | inactive |
| Nhlh2 | 1 | high cell count without drug only | 1.01 | 2.53 | -0.45 | 1.03 | inactive |
| Gcnt2 | 1 | low cell count with doxorubicin only | -2.59 | -0.84 | -2.14 | 0.71 | active |
| Bcl2l2 | 1 | no change with or without drug | -1.8 | -0.84 | -1.24 | 0.78 | inactive |
| Ranbp10 | 1 | no change with or without drug | -0.22 | -0.34 | 0.11 | 0.92 | inactive |
| Tom1l2 | 1 | low cell count with doxorubicin only | -2.47 | -0.84 | -2.02 | 0.72 | active |
| Ide | 1 | no change with or without drug | -0.9 | -1.52 | 0.22 | 0.86 | inactive |
| Serpinb12 | 1 | no change with or without drug | -0.67 | -1.69 | 0.67 | 0.88 | inactive |
| Chil3 | 1 | no change with or without drug | -0.56 | -0.17 | -0.34 | 0.89 | inactive |
| Id3 | 1 | no change with or without drug | -1.46 | -1.52 | -0.45 | 0.81 | inactive |

Records above called active (8):
| gene knocked down | reagent no. | combined z-score class | viability z-score with doxorubicin | viability z-score without drug | z-score of drug to no-drug ratio | doxorubicin viability vs non-targeting | Call |
| --- | --- | --- | --- | --- | --- | --- | --- |
| Cldn23 | 1 | low cell count with doxorubicin only | -2.14 | -1.52 | -1.24 | 0.75 | active |
| Zc3h8 | 1 | low cell count with doxorubicin only | -2.25 | 0.34 | -2.47 | 0.74 | active |
| Slc38a5 | 1 | low cell count with doxorubicin only | -2.02 | 0.51 | -2.25 | 0.76 | active |
| 4921522P10Rik | 1 | low cell count with doxorubicin only | -7.76 | 0.67 | -8.21 | 0.25 | active |
| Mkrn2 | 1 | low cell count with doxorubicin only | -2.25 | -0.34 | -2.02 | 0.74 | active |
| Clec2e | 1 | low cell count with doxorubicin only | -2.25 | -0.67 | -1.91 | 0.74 | active |
| Gcnt2 | 1 | low cell count with doxorubicin only | -2.59 | -0.84 | -2.14 | 0.71 | active |
| Tom1l2 | 1 | low cell count with doxorubicin only | -2.47 | -0.84 | -2.02 | 0.72 | active |
